Measured values reported in article PMC3114845, “Bordetella pertussis Autotransporter Vag8 Binds Human C1 Esterase Inhibitor and Confers Serum Resistance” (PLoS ONE, 2011).
These are yes or no findings as the source states them, for the method shown. For some assays here: Binding calls can cover weak binding; strength is not graded here.

The chains behind the UniProt entries cited, without tags or fusion partners. Where a name states a change or a piece, a line headed by the entry shows the natural chain unless it says otherwise.
UniProt Q79GN7: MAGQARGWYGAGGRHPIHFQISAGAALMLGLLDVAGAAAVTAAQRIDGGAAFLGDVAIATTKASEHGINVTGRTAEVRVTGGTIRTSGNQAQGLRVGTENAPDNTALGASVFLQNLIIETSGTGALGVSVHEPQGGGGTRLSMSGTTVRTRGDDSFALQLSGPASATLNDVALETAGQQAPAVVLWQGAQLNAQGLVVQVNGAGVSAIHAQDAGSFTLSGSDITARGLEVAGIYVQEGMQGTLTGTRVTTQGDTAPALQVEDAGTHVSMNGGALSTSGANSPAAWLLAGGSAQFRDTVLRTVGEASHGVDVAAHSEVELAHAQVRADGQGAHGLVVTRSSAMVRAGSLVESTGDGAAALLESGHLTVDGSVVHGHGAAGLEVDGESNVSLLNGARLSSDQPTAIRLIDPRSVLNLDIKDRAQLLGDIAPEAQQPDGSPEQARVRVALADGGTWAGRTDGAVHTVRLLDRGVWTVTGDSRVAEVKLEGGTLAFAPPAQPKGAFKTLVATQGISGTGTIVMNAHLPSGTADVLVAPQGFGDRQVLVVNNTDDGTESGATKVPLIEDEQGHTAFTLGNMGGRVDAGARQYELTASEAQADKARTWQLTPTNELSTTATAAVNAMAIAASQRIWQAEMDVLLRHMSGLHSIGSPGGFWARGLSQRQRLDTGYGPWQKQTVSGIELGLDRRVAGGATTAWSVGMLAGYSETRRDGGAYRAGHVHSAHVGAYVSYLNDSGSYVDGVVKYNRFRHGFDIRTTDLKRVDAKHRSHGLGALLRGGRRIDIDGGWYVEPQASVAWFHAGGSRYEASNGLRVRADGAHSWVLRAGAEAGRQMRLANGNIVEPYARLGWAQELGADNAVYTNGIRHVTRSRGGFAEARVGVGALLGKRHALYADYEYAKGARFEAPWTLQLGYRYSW

B1: C1 esterase inhibitor in normal human serum (protein, UniProt P05155 23-500)
chain: NPNATSSSSQDPESLQDRGEGKVATTVISKMLFVEPILEVSSLPTTNSTTNSATKITANTTDEPTTQPTTEPTTQPTIQPTQPTTQLPTDSPTQPTTGSFCPGPVTLCSDLESHSTEAVLGDALVDFSLKLYHAFSAMKKVETNMAFSPFSIASLLTQVLLGAGENTKTNLESILSYPKDFTCVHQALKGFTTKGVTSVSQIFHSPDLAIRDTFVNASRTLYSSSPRVLSNNSDANLELINTWVAKNTNNKISRLLDSLPSDTRLVLLNAIYLSAKWKTTFDPKKTRMEPFHFKNSVIKVPMMNSKKYPVAHFIDQTLKAKVGQLQLSHNLSLVILVPQNLKHRLEDMEQALSPSVFKAIMEKLEMSKFQPTLLTLPRIKVTTSQDMLSIMEKLEFFDFSYDLNLCGLTEDPDLQVSAMQHQTVLELTETGVEAAAASAISVARTLLVFEVQQPFLFVLWDQQHKFPVFMGRVYDPRA
B2: purified human C1 esterase inhibitor (natural protein)
chain: B1 chain
notes: also called C1inh; purified C1inh; source: bought: Advanced Research Technologies (purified human C1inh)

Assays:
[1] = biological target: autotransporter Vag8 of B. pertussis BP338 (endogenous) (Bordetella pertussis (endogenous in BP338)) (UniProt Q79GN7); experiment: surface-binding assay (bacteria in serum, immunoblot of cell-associated C1inh); viable bacteria exposed to normal human serum 15 min at 37°C, on ice 5 min, washed 3 times, pelleted; cell-associated C1inh detected by immunoblot; vag8 knock-out strains as controls
[2] = biological target: autotransporter Vag8 of B. pertussis 18-323Sm^r (endogenous) (Bordetella pertussis (endogenous in 18-323Sm^r)); experiment: as above
[3] = biological target: Vag8 expressed from plasmid pVag8 in BP338Vag8^- (Bordetella pertussis) (UniProt Q79GN7); experiment: as above
[4] = biological target: autotransporter Vag8 of B. pertussis BP338 (endogenous) (Bordetella pertussis (endogenous in BP338)) (UniProt Q79GN7); experiment: far-Western, overlay or dot blot; whole-cell lysates of B. pertussis on 11% SDS-PAGE, blotted on PVDF, renatured (6 M guanidine-HCl, then long wash), overlaid with 1% normal human serum in Veronal buffer, 1 h room temperature; detected with anti-C1inh
[5] = biological target: histidine-tagged BrkA passenger domain (Bordetella pertussis); experiment: condition: 10 µg/ml purified C1inh; coat up to 5 µg/ml; ELISA; MaxiSorp plates coated with two-fold dilutions of purified passenger domain (top 5 µg/ml, PBS pH 7.4, overnight 4°C); probed 1 h at room temperature with 10 µg/ml purified human C1inh; detected with goat anti-C1inh; both purified

Row | Binder | binding [1] | binding [2] | binding [3] | binding [4] | binding [5]
1 | B1 | binds | binds | binds | binds | 
2 | B2 |  |  |  |  | no binding
